PubChem BioAssay AID504774 | Drosophila RNAi Screening Center, 2011

Aim: 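Knock-downs that shift viability of MMS-exposed cells relative to untreated ones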 (primary screen)
Cells: Drosophila Kc167 cells
Reagent: long dsRNA against Drosophila genes, about 0.25 µg dsRNA per well
Time to read-out: about 6 days: 3 days knock-down, then 3 days with or without MMS
Conditions: methyl methanesulphonate 0.004% (w/v) for 3 days after knock-down
Measured: 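Viability in wells given MMS, read as ATP luminescence, normalised by quantiles plate by plate and averaged across replicates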
Reading the numbers: mean viability with MMS and viability with MMS: higher = more surviving cells after MMS
The screen tested about 23,000 reagents; shown is an unselected part of those that have a named target and a result. 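Values are quantile-normalised luminescence on an arbitrary scale; higher means more cells surviving MMS.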 Names joined by + are all predicted targets of the reagent.

gene	amplicon	mean viability with MMS	viability with MMS, replicate 1	viability with MMS, replicate 2
tbrd-1	DRSC14601	3.60e6	4.05e6	4.12e6
CG17192	DRSC15186	3.63e6	4.20e6	4.01e6
dmrt99B	DRSC15045	3.00e6	3.54e6	3.55e6
dmrt99B	DRSC22977	3.18e6	3.72e6	3.39e6
lncRNA:CR32385	DRSC22966	3.52e6	3.99e6	4.00e6
CG7530	DRSC16255	3.65e6	4.12e6	4.20e6
RpLP0-like	DRSC06424	3.57e6	4.09e6	4.02e6
phr6-4	DRSC03589	3.59e6	3.97e6	4.17e6
CG14400	DRSC02384	3.53e6	4.06e6	3.93e6
CG6885	DRSC10740	3.37e6	3.77e6	3.80e6
Rac1	DRSC08688	3.65e6	4.18e6	4.04e6
CG13727	DRSC10055	3.71e6	3.96e6	4.38e6
Send1	DRSC00482	3.48e6	4.02e6	3.86e6
CG10280	DRSC12133	3.58e6	4.13e6	4.00e6
Peritrophin-15a	DRSC02636	3.59e6	4.15e6	3.99e6
CG10764	DRSC06000	3.75e6	4.19e6	4.29e6
CG31952	DRSC00428	3.67e6	4.10e6	4.17e6
CG31952	DRSC21997	3.60e6	4.09e6	4.04e6
plum	DRSC16054	3.54e6	4.00e6	4.05e6
mim	DRSC05013	2.89e6	3.60e6	3.59e6
mim	DRSC23045	3.54e6	4.05e6	4.00e6
CG32006	DRSC21768	3.14e6	3.74e6	3.71e6
CG10565	DRSC11620	3.52e6	3.99e6	3.99e6
CG5721	DRSC06945	3.47e6	3.88e6	3.97e6
CG11951	DRSC14442	3.65e6	4.13e6	4.13e6
Acbp1	DRSC03093	3.78e6	4.44e6	4.15e6
Taf2	DRSC11298	3.28e6	3.74e6	3.75e6
CG30273	DRSC22059	3.56e6	4.03e6	4.02e6
iPLA2-VIA	DRSC10699	3.41e6	3.90e6	3.85e6
CG5892	DRSC15910	3.63e6	4.09e6	4.14e6
Alp4	DRSC14116	3.55e6	3.99e6	4.05e6
CAH7	DRSC15524	3.68e6	4.14e6	4.10e6
Nlp	DRSC16759	3.42e6	3.85e6	3.92e6
mRpS17	DRSC04463	3.69e6	3.98e6	4.36e6
Tsp42Eq	DRSC06180	3.79e6	4.15e6	4.26e6

Copied from the entries so far, 13 entries:
gene	amplicon	mean viability with MMS	viability with MMS, replicate 1	viability with MMS, replicate 2
CG17192	DRSC15186	3.63e6	4.20e6	4.01e6
dmrt99B	DRSC15045	3.00e6	3.54e6	3.55e6
dmrt99B	DRSC22977	3.18e6	3.72e6	3.39e6
lncRNA:CR32385	DRSC22966	3.52e6	3.99e6	4.00e6
CG7530	DRSC16255	3.65e6	4.12e6	4.20e6
RpLP0-like	DRSC06424	3.57e6	4.09e6	4.02e6
phr6-4	DRSC03589	3.59e6	3.97e6	4.17e6
CG14400	DRSC02384	3.53e6	4.06e6	3.93e6
CG6885	DRSC10740	3.37e6	3.77e6	3.80e6
Rac1	DRSC08688	3.65e6	4.18e6	4.04e6
CG13727	DRSC10055	3.71e6	3.96e6	4.38e6
Send1	DRSC00482	3.48e6	4.02e6	3.86e6
CG10280	DRSC12133	3.58e6	4.13e6	4.00e6

Continued:
gene	amplicon	mean viability with MMS	viability with MMS, replicate 1	viability with MMS, replicate 2
Eig71Ei	DRSC11156	3.66e6	4.19e6	4.07e6
CG14453	DRSC11710	3.54e6	4.34e6	4.27e6
bbc	DRSC06958	3.71e6	4.23e6	4.19e6
bbc	DRSC22309	3.54e6	3.98e6	4.04e6
bru2	DRSC01246	3.40e6	3.73e6	3.98e6
bru2	DRSC01247	3.19e6	3.55e6	3.69e6
bru2	DRSC01249	3.34e6	3.63e6	3.91e6
bru2	DRSC01250	3.34e6	3.70e6	3.84e6
bru2	DRSC02557	3.05e6	3.59e6	3.60e6
sfl	DRSC08828	3.34e6	3.78e6	3.77e6
sfl	DRSC08830	3.55e6	4.08e6	3.97e6
Arp6	DRSC19326	3.47e6	4.03e6	3.48e6
CG13331	DRSC06366	3.76e6	4.11e6	4.09e6
Wnk	DRSC11813	3.10e6	3.58e6	3.64e6
CG9630	DRSC16527	3.62e6	4.18e6	4.06e6
CLIP-190	DRSC03283	3.47e6	3.98e6	3.85e6
Pgant9	DRSC05621	3.48e6	3.86e6	4.05e6
Pgant9	DRSC06584	3.54e6	3.99e6	4.03e6
Pgant9	DRSC07185	3.60e6	4.22e6	3.93e6
Pgant9	DRSC07186	3.43e6	3.90e6	3.85e6
Pgant9	DRSC07187	3.65e6	4.23e6	4.02e6
Pgant9	DRSC07189	3.56e6	3.98e6	4.08e6
Pgant9	DRSC21807	3.58e6	4.07e6	4.06e6
Pgant9	DRSC22076	3.69e6	4.09e6	4.19e6
Elba1	DRSC00276	3.69e6	4.09e6	4.22e6
CG3603	DRSC18317	3.49e6	4.12e6	3.82e6
CG10602	DRSC02075	3.47e6	3.79e6	4.07e6
AsnRS	DRSC01990	3.41e6	3.68e6	4.00e6
bw	DRSC04005	3.57e6	4.14e6	3.96e6
bw	DRSC04677	3.74e6	4.22e6	4.11e6
ics	DRSC01878	3.55e6	3.78e6	4.30e6
CG6769	DRSC20006	3.72e6	4.22e6	4.28e6
CG14568	DRSC11729	3.50e6	4.03e6	3.89e6
CG42557 + CG42558	DRSC13963	3.53e6	4.03e6	3.97e6
CG42557 + CG42558	DRSC16329	3.46e6	3.98e6	3.87e6
pdgy	DRSC19064	3.47e6	4.04e6	3.87e6
pdgy	DRSC19341	3.74e6	3.94e6	4.50e6
Ssl2	DRSC14395	3.53e6	4.06e6	3.92e6
Ssl2	DRSC22796	3.50e6	4.02e6	3.95e6
RpS27	DRSC14244	3.21e6	3.65e6	3.68e6
Stacl + CG8179 (retired record)	DRSC07091	3.54e6	4.08e6	3.93e6
Stacl + CG8179 (retired record)	DRSC23019	3.75e6	4.25e6	4.24e6
gb	DRSC15961	3.83e6	4.05e6	4.63e6
CG12766	DRSC08295	3.51e6	3.93e6	4.03e6
mtgo	DRSC02245	3.16e6	3.61e6	3.61e6
mtgo	DRSC02246	3.32e6	3.79e6	3.74e6
mtgo	DRSC02769	3.57e6	3.95e6	4.16e6
mtgo	DRSC21392	3.44e6	4.13e6	3.74e6
mtgo	DRSC21743	3.43e6	3.90e6	3.93e6
CG15820	DRSC08480	3.48e6	3.96e6	3.90e6
Bub3	DRSC14168	3.40e6	3.87e6	3.87e6
l(3)05822	DRSC16202	3.70e6	4.14e6	4.19e6
